In paper PMC7185134:
No constants are given. Whether binding was seen depends on the method and setting. Binding seen in cells or lysates may run through a third protein. Some entries that bind do so weakly or less than the wild type.

By UniProt entry, the sequences of proteins in these tests, tags left out. Residues count along the entry.
UniProt P30405, residues 30-207: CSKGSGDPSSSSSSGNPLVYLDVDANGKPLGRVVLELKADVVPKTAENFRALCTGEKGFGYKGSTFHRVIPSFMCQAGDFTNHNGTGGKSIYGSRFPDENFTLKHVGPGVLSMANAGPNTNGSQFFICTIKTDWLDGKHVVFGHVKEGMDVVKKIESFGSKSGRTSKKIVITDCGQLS

Biological target: cyclophilin-D (CypD) (human (endogenous in T-HESC)) (UniProt P30405)
Assay: co-IP; Mito-IP: mitochondrial lysates (400 μg) of T-HESC cells after OGDR, with or without GRh3 (10 μM, 2h) pretreatment; pre-cleared, anti-CypD antibody, Western blot for p53 and ANT-1

B1: adenine nucleotide translocator-1 (ANT-1) (protein, UniProt P12235 1-298)
chain: MGDHAWSFLKDFLAGGVAAAVSKTAVAPIERVKLLLQVQHASKQISAEKQYKGIIDCVVRIPKEQGFLSFWRGNLANVIRYFPTQALNFAFKDKYKQLFLGGVDRHKQFWRYFAGNLASGGAAGATSLCFVYPLDFARTRLAADVGKGAAQREFHGLGDCIIKIFKSDGLRGLYQGFNVSVQGIIIYRAAYFGVYDTAKGMLPDPKNVHIFVSWMIAQSVTAVAGLVSYPFDTVRRRMMMQSGRKGADIMYTGTVDCWRKIAKDEGAKAFFKGAWSNVLRGMGGAFVLVLYDEIKKYV
binding: binds
